Results published in the supplement of paper PMC5949888.
Most values lie at the floor of the assay. Slopes are relative: functional sequences can read slightly below zero.

System: Saccharomyces cerevisiae PS128 hsf1 delta, HSF1(1-493) fusion
Test: growth estimate (transactivation domain function in HSF1 fusion, heat-shock survival) (a.u. (slope of normalised read count over time)); higher = stronger growth at 37°C, i.e. more transactivation activity
Settings: library: random library
Procedure: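 Random 60-nt DNA library encoding peptides of up to 20 aa, fused to the C-terminus of yeast HSF1 residues 1-493 (C-terminal TAD deleted) and expressed from the native HSF1 promoter on a CEN plasmid in hsf1-deleted S. cerevisiae PS128. Cells were selected at 37°C on -trp 5-FOA plates for 0, 2, 4, 6 and 8 days and amplicons were sequenced. Growth estimate is the slope of a robust linear fit of total-sum-normalised read counts (normalised to the first time point) over time, using at least 2 replicates. Sequences are classed functional (TAD activity) above a threshold of -0.13, set from stop-codon control sequences.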

Substance | growth estimate
SKTVPAEGLTIWAEPHVQPG | < -0.25
TGKRRVTLP | < -0.25
LHST | < -0.25
SIMPSSESQSGDTAATRRDT | < -0.25
FGKSPRMFGL | -0.246
CAPRRGPPHMVILTAQAPRP | < -0.25
AYDQSFDI | < -0.25
PVKTIFYYFVSHKPIMVFQS | < -0.25
VPPRCGPVSFPGVSLGPVRR | < -0.25
KTCAVSSQVSSCLDPDHQAS | < -0.25
HCLIFEYRRRIASDIS | < -0.25
PTTHWATVVPPA | < -0.25
IIWAGLSHGRNEQGFAQYTD | < -0.25
TEADRIWSAWQGEKSGAGAS | < -0.25
LAGYGCESACQSEGTHPARC | < -0.25
PSTYVDAKYQSAAETTRPIL | < -0.25
SKRQEKEQCPPVASAHSVRP | < -0.25
GIVRTSTAVFFCLQPTASQG | < -0.25
GRIG | < -0.25
RHINRRTNSSP | < -0.25
LASRADF | < -0.25
SLLEEVIPEQ | < -0.25
CHAGVLRLVRQHWRGRPRHS | -0.226
SNWLDPT | < -0.25

Substance | growth estimate
QRLSVANGYQLRQAILSRYS | < -0.25
PHITMVVRKRSHAEREVHRL | < -0.25
LPCCIGFPGGEGP | < -0.25
FRANSIPGSESQAWYPYCRG | -0.227
NTLSIL | < -0.25
QPSALHCVARSVSPRQNTSR | < -0.25
MLTCSRGLSLNLFTPTINKS | < -0.25
QGCPE | < -0.25
IVAT | < -0.25
LRKTLQEFGRCSKEMSRGKY | < -0.25
PQPRFCPDLKCFCTPCKALR | < -0.25
NMGRQCACSGFLMPLVITKY | < -0.25
VIESRNQGVCFQRVPEKRQA | < -0.25
LNTYRSWG | < -0.25
VRWMPPI | < -0.25
IPSNTYS | < -0.25
WSPGHIAKVARRAKI | < -0.25
DSLVSW | < -0.25
PFILVWVRVRPGFESSWVAT | < -0.25
VILAART | < -0.25
YPNAVIFSLRAAREPLPCVV | < -0.25
CSSSERIEAG | < -0.25
HHESWFSKRPASGGLPVVLT | < -0.25
YRDSPNDIIV | -0.218

Substance | growth estimate
VLWASGDLNSVGCPHNTRER | < -0.25
SAGERLTGSVLI | < -0.25
YPHGGSKGGEGGTTIDQIRA | < -0.25
STWVKSHCLFEETVPG | < -0.25
WSQR | < -0.25
CARADGTRSICATDESRSAM | < -0.25
WRDQSLDLDRGVVCTGCKGF | < -0.25
HPVLVWSEVSFENGMLGM | < -0.25
RKRD | -0.243
CSWNRV | < -0.25
DHVTISNGKVGAGLATSSCG | < -0.25
LVVSLH | < -0.25
VYRLGRATSTYAAKAGICVG | < -0.25
PLQGPR | -0.246
RRWGAPRQV | < -0.25
SFSQQGAKTTCCGRSIAFAD | < -0.25
VLSKCTGRG | < -0.25
LRTGRLFTVWSRTTTIHEEL | < -0.25
SWLGLIELLIVGSQFLR | < -0.25
LVLHKGLRAPLA | < -0.25
WTCSAA | < -0.25
NVTARVTADVPIRACGLSKL | < -0.25
VRYA | < -0.25
VSQGMTVSIPKRLGVAFIY | < -0.25

Substance | growth estimate
PNASLGWAQVALSVAGVTNE | < -0.25
PHHLCSRFNSKM | < -0.25
APVFAVAVFSILAGERRQCG | < -0.25
LLFNVGLVQLR | < -0.25
RLRLEENAVEGQQQQTVTGL | < -0.25
IDSMDIRMTARSEPTVTPQP | < -0.25
HLGISGVHNVPREDLSKAES | < -0.25
NGTRAALIGLWYRFHSDAQG | < -0.25
CCPAQDYLCESGI | < -0.25
SESISGGLARIG | < -0.25
RCRLRTHLSG | < -0.25
TRFENL | < -0.25
SGQS | < -0.25
TQTRWSTARPVRHK | < -0.25
LVNAYRSGCPPCMGTCWHKG | < -0.25
FRQRSVRPWACGLREGACQC | -0.214
REKRVQGATLNSSGLGETIR | < -0.25
RPEHTNGDRRDGFWG | < -0.25
NIGALVVGQI | < -0.25
VPRSGWSWCKLGASETLSVT | < -0.25
TERVKFEVEA | < -0.25
GRGPRGRRAAPYVSGSPEAH | < -0.25
SDNSS | < -0.25
YSSTMQSTH | < -0.25

Substance | growth estimate
FRTLG | < -0.25
SGDVT | < -0.25
GCTTIEVEL | < -0.25
AFILMRGHKKFPSCADVRSE | < -0.25
SERCWEVFSLGKLANRGEQG | < -0.25
PSVSCTSCLLRDPKSDD | < -0.25
KFRSCWQALWALRVGLH | < -0.25
GSHFT | < -0.25
TSAEPAYACAFVGRR | < -0.25
TCHHLDY | < -0.25
CNRRRWVTIRVCILGGFIRC | < -0.25
GGDPP | < -0.25
DRVVQIDQRGPIVQLVLQGP | < -0.25
GSTRIKARWQFVRGYSGGAM | < -0.25
HPGRLIIVLHRVHSSQNTYR | < -0.25
FLPPGWVNLPHGGNLGAHFP | < -0.25
VGRATQSTRVATSP | < -0.25
RGVRVFKAGH | < -0.25
HVPSGRRGFTAIGIGTLGDL | < -0.25
GSGEVLSPWIQLLSMPRERG | < -0.25
ESTGERIAGKNELHLG | < -0.25
SKLQFVSSDDRL | < -0.25
TKDPGMNLSVRSARCRFNPL | < -0.25
QKERILYTHTIRRGADT | < -0.25

Copied from the list.
growth estimate, TKDPGMNLSVRSARCRFNPL reads < -0.25
growth estimate, ESTGERIAGKNELHLG reads < -0.25

Following part:

Substance | growth estimate
YCGSQGKRRGTPFSSSEQIA | < -0.25
VVRRELWAVGLCNDQIKCGK | < -0.25
PVTLDRG | < -0.25
HRE | < -0.25
RLFITDWYFKS | < -0.25
RSQPGTTQGDRHSAT | < -0.25
AGEIYASDKRALSSNPLLGR | -0.241
GNHERSVCWGLEEDS | < -0.25
WVGSV | < -0.25
YYR | < -0.25
LSEKFGSV | < -0.25
RLPANCGH | < -0.25
RIRRY | < -0.25
RSTFIISARFWLYRVA | < -0.25
EIGYIGSKRTQPPTCMVLGS | < -0.25
TAQRSPATG | < -0.25
QLYPLVVIATM | -0.243
SMRTRVSGYR | < -0.25
SQAGKVTRHVIVGRKANGVS | < -0.25
WIAKENTRQEAHRRNEMLAR | < -0.25
YRRLRGSGITGFDLA | < -0.25
SDLGLEVAKTWWIHDSLGKT | < -0.25
RGP | < -0.25
CRSVKFRNR | < -0.25

Substance | growth estimate
KNALCLR | < -0.25
TPVRKDAIGCVRSRSARRPC | < -0.25
THGWNLPRLRPYWLVSRIKR | < -0.25
GSWSSSRGVLGPDELGACLP | < -0.25
MFLCDPGPVSAAHREDL | < -0.25
PGCQNDARDNPTGKPGVHLP | < -0.25
FQESIYV | < -0.25
CQGLWEPCQYLPHVFEQPGN | -0.211
NRSGISGNSFHGLVVVVF | < -0.25
LTGLFLSQRYVEWEGPTLVR | < -0.25
VLRGNHRTRVNFSEKLSRES | < -0.25
VCPCASTTRNLRGVIVELVH | < -0.25
QYSV | -0.245
NRLAP | < -0.25
RVGAVSPTLHTRTRFRDSAT | < -0.25
RMRSDDWDIRPGLGGEIPGK | < -0.25
SNLRESGSSRSALHW | < -0.25
LRLTISR | < -0.25
TYSIWLTVYKSYIINAIRR | < -0.25
YFADR | < -0.25
QSRSRFECASA | < -0.25
FEVVVPEYLPRTKLEARASS | < -0.25
CISEYDRLRSIPGYPGFPSI | < -0.25
PILSSA | < -0.25

Six successive entries out of the list so far, for reference:
Substance | growth estimate
THGWNLPRLRPYWLVSRIKR | < -0.25
GSWSSSRGVLGPDELGACLP | < -0.25
MFLCDPGPVSAAHREDL | < -0.25
PGCQNDARDNPTGKPGVHLP | < -0.25
FQESIYV | < -0.25
CQGLWEPCQYLPHVFEQPGN | -0.211

Remaining list, next part

Substance | growth estimate
HVWFTEKVQVWEEDAPLHRL | < -0.25
NVSLLPVTLGRPVTEGSPTQ | < -0.25
CLSSAQTSRIPYRYI | < -0.25
IHSFHADALGRP | < -0.25
NPPGKGES | < -0.25
RYSSVCATESFFGLD | < -0.25
VSRQGFLTVMRLNCEHQRCN | < -0.25
SCGVV | < -0.25
PMMLTIPIGWTNDDTEHTY | < -0.25
SAIGSLHLVYTYSSSWMSLA | < -0.25
GAILNHNARL | < -0.25
NVVV | < -0.25
VVMAVRRLRTQGCEVDCRNI | < -0.25
GLQSPRRSYRDDTLHWVDDV | -0.246
WGSLS | < -0.25
YVWAGASVNRAAVRVCSLWI | < -0.25
PSCAGPFPGVYNAYSPCCSV | < -0.25
MRPYSARRRLLTGKPRPPVR | < -0.25
RYKREPPEYYLEHHIIYVLH | < -0.25
FSSPFESLTPGSIRYFFRRR | < -0.25
EPGLAVP | < -0.25
QIFTVMTATRGVS | < -0.25
RQVYGPAQRSKVRRWDA | < -0.25
CSRSGGWMSGTFAPWGKSVG | < -0.25
